Results published in PubChem BioAssay AID662 (National Center for Advancing Translational Sciences (NCATS), 2007).
Some of the results follow. Further columns of the screen follow, without active or inactive calls. The list favours compounds with an active or inconclusive main result. The note in brackets gives the kind of curve behind each potency; many fits are weak.

Assay: Cell signaling CRE-BLA (Fsk stim)
Conditions: CHO CRE-bla reporter (cAMP response element driving beta-lactamase), forskolin EC10, beta-lactamase ratio; measured here: 460 nm blue channel
Procedure, shortened: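 CRE-bla CHO cells stimulated with EC10 NKH 477 (water-soluble forskolin) and compound titrations, 3 h at 37C; beta-lactamase read with CCF4 after 2 h at room temperature. Activity from 460/530 nm emission ratio, AC50 values for positive or negative modulation.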

For `COc1ccccc1C1CC(c2ccc(F)cc2)Nc2ncnn21` (configuration not stated), which AC50 is on record?
Its AC50 is 2.51 µM [falling, partial curve].

For `O=C1CCCN1CCCNc1ncnc2c1cnn2-c1ccc(Cl)cc1`, which AC50 is on record?
Its AC50 is 3.16 µM [rising, full curve].

Which AC50 does the source give for `CCn1c(SCC(=O)NC(=O)Nc2ccc3c(c2)OCCO3)nnc1-c1cccs1` here?
Its AC50 is 12.6 µM [rising, single point].

For `CCc1nc2cc(C)nn2c2nc3ccccc3n12`, which AC50 is on record?
The AC50 was 3.98 µM [rising, full curve].

With `CCN1CCCC1CNC(=O)c1ccc(N2CCCC2=O)cc1` (configuration not stated) as the molecule, how does the AC50 read?
Its AC50 is 6.31 µM [falling, partial curve].

With `Fc1ccc(-c2cc(C(F)(F)F)nc(-n3cncn3)n2)cc1` as the molecule, how does the AC50 read?
Its AC50 is 3.16 µM [falling, partial curve].

Which AC50 does the source give for `CC(C)Cn1c(CN(C)Cc2ccccc2)nc2c1c(=O)n(C)c(=O)n2C` here?
The AC50 was 12.6 µM [rising, partial curve].

With `Cc1cc2cc(CCNC(=O)CC(C)(C)C)c(=O)[nH]c2cc1C` as the molecule, how does the AC50 read?
Its AC50 is 15.8 µM [rising, single point].

Which AC50 does the source give for `CN(C)c1ccc(/C=[N+](\[O-])C(C)(C)/C=N/O)cc1` here?
Its AC50 is 3.16 µM [falling, partial curve, poor fit].

For `Cn1c(C(C#N)/C(=N\S(=O)(=O)c2cccs2)c2ccccc2)nc2ccccc21` (configuration not stated), which AC50 is on record?
Its AC50 is 20 µM [rising, partial curve].

With `CN(C)c1ccc(-c2cc(N(C)Cc3ccco3)ncn2)cc1` as the molecule, how does the AC50 read?
The AC50 was 6.31 µM [rising, partial curve].

With `Cc1c(-c2nc(N)nc(Nc3ccc(F)cc3)n2)oc2ccccc12` as the molecule, how does the AC50 read?
Its AC50 is 20 µM [rising, partial curve, poor fit].

With `CCCN1CCCc2cc(CN)ccc21` as the molecule, how does the AC50 read?
The AC50 was 12.6 µM [rising, single point].

With `Cn1c(=O)oc2cc(S(=O)(=O)N3CCN(Cc4ccc5c(c4)OCO5)CC3)ccc21` as the molecule, how does the AC50 read?
Its AC50 is 12.6 µM [falling, single point].

With `COC(=O)C(C)Sc1ccc2nnc(-c3cccc(F)c3)n2n1` (configuration not stated) as the molecule, how does the AC50 read?
The AC50 was 10 µM [rising, partial curve].

With `CCc1c(C)c2ccc(O)c(CN(C)C)c2oc1=O` as the molecule, how does the AC50 read?
The AC50 was 12.6 µM [rising, partial curve].

With `C[N+](C)(C)[C@@H](C1=CCCC1=O)c1ccccc1` as the molecule, how does the AC50 read?
Its AC50 is 0.794 µM [rising, partial curve].

With `COc1cc(C2=NOC(C(=O)N3CCN(c4ccc(F)cc4)CC3)C2)cc(OC)c1OC` (configuration not stated) as the molecule, how does the AC50 read?
The AC50 was 10 µM [rising, single point].

Which AC50 does the source give for `COc1cccc(N2CCN(C3OC(=O)c4ccccc43)CC2)c1` (configuration not stated) here?
The AC50 was 2.51 µM [falling, full curve, poor fit].

For `O=c1c(-c2cccs2)nc2cncnc2n1C1CC1`, which AC50 is on record?
The AC50 was 5.01 µM [rising, partial curve].

With `Cn1c(COc2ccc(Cl)cc2)nnc1SCc1ncc(-c2ccccc2)o1` as the molecule, how does the AC50 read?
Its AC50 is 5.01 µM [falling, single point].

Which AC50 does the source give for `COc1ccc2nc(NC(=O)C(NS(=O)(=O)c3cccs3)C(C)C)sc2c1` (configuration not stated) here?
The AC50 was 25.1 µM [rising, single point].

Which AC50 does the source give for `CCC/C=C(\CCC)C(NC(=O)c1ccc(C(F)(F)F)cc1)c1ccccc1` (configuration not stated) here?
Its AC50 is 3.98 µM [rising, partial curve].

Which AC50 does the source give for `Cc1ccc(C)c(NS(=O)(=O)c2c(C)ccc3nsnc23)c1` here?
The AC50 was 5.01 µM [falling, single point].

Which AC50 does the source give for `O=C(O)c1ccc(C(=O)O)c(C(=O)Nc2ccc3c(c2)Cc2ccccc2-3)c1` here?
Its AC50 is 0.631 µM [falling, partial curve].

For `Fc1cccc(NCc2ccoc2)c1`, which AC50 is on record?
Its AC50 is 0.794 µM [rising, partial curve].

For `Cc1cccc2cc3c(nc12)SC(=NCC1CCCO1)N(Cc1ccco1)C3` (configuration not stated), which AC50 is on record?
The AC50 was 3.16 µM [falling, full curve].

Which AC50 does the source give for `Nc1c(S(=O)(=O)c2cccs2)c2nc3ccccc3nc2n1/N=C/c1cccc(O)c1` here?
The AC50 was 2.51 µM [rising, partial curve].

For `CN1CCN(c2ncc3nc(-c4cccs4)c(=O)n(CCC#N)c3n2)CC1`, which AC50 is on record?
Its AC50 is 10 µM [rising, partial curve].

Which AC50 does the source give for `Cc1cc(C)c2c(=O)n(CC(=O)N3CCC(Cc4ccccc4)CC3)sc2n1` here?
The AC50 was 25.1 µM [falling, single point].

With `COC(=O)c1cccc(C(=O)Nc2ccc(C)cc2Br)n1` as the molecule, how does the AC50 read?
The AC50 was 0.0251 µM [falling, full curve, poor fit].

Which AC50 does the source give for `Cc1cc(C)n2nc(C(=O)Oc3ccc4c(c3)OCO4)nc2n1` here?
Its AC50 is 5.01 µM [falling, single point].

Which AC50 does the source give for `Cc1cc(C)n(-c2ncc(-c3ccccc3)nn2)n1` here?
The AC50 was 20 µM [rising, single point].

For `Cc1ccc(SCCNS(=O)(=O)c2ccc(F)cc2)cc1`, which AC50 is on record?
Its AC50 is 0.398 µM [falling, partial curve].

Which AC50 does the source give for `CCOC(=O)c1c(Nc2nc(C)c(C(=O)NC)s2)sc(C)c1C` here?
Its AC50 is 1.58 µM [rising, full curve].

With `CCn1cnc2c1c(=O)n(Cc1csc(-c3ccccc3)n1)c(=O)n2Cc1ccccc1` as the molecule, how does the AC50 read?
Its AC50 is 7.94 µM [rising, partial curve].

With `COc1cccc(CNc2nc3nc(C)c(Cl)c(C)n3n2)c1` as the molecule, how does the AC50 read?
The AC50 was 12.6 µM [rising, partial curve].

For `Cc1ccc(-c2nnn(CC(=O)NC3CC4CCC3C4)n2)cc1` (configuration not stated), which AC50 is on record?
Its AC50 is 0.00631 µM [falling, full curve, poor fit].

For `CCC(=O)N1c2ccc(S(=O)(=O)CCC(=O)N3CCn4c3nc3ccccc34)cc2CC1C` (configuration not stated), which AC50 is on record?
The AC50 was 0.1 µM [falling, partial curve, poor fit].

With `Cc1ccc(S(=O)(=O)N2CCCC(c3nnc4n3-c3ccccc3SC4)C2)cc1` (configuration not stated) as the molecule, how does the AC50 read?
The AC50 was 3.16 µM [rising, single point].

For `COc1cccc(C(c2sc3nc(C)nn3c2O)N2CCN(C(=O)c3ccco3)CC2)c1` (configuration not stated), which AC50 is on record?
Its AC50 is 7.94 µM [rising, partial curve].

Which AC50 does the source give for `COc1ccc(OC)c(CCNC(=O)Cn2sc3nc(C)cc(C)c3c2=O)c1` here?
The AC50 was 25.1 µM [falling, single point].

With `COc1ccc(-c2noc(CN3C(=O)c4ccccc4C3=O)n2)cc1` as the molecule, how does the AC50 read?
Its AC50 is 25.1 µM [rising, single point].

Which AC50 does the source give for `O=C(COC(=O)c1ccc2c(c1)OCO2)NCc1ccc(Cl)cc1` here?
Its AC50 is 5.01 µM [falling, single point].

Which AC50 does the source give for `CCCCOC(=O)c1cc2c(cn1)[nH]c1ccccc12` here?
The AC50 was 25.1 µM [falling, single point].

For `Cc1cc(/C=N/n2cnnc2)c(C)n1-c1ccc2ncccc2c1`, which AC50 is on record?
The AC50 was 1.26 µM [rising, partial curve].

Which AC50 does the source give for `CSc1nc2ccc(NS(=O)(=O)c3ccc4c(c3)OCCO4)cc2s1` here?
The AC50 was 0.794 µM [falling, partial curve].

With `Clc1c(CSc2nc3ccccc3o2)nc2ccccn12` as the molecule, how does the AC50 read?
Its AC50 is 3.16 µM [rising, full curve].

With `COc1cc(NC(=O)c2cnn3c(C)cc(C)nc23)c(OC)cc1Cl` as the molecule, how does the AC50 read?
The AC50 was 2 µM [rising, full curve].

For `COn1c(C)c(C(C)=O)c2c3nonc3ccc21`, which AC50 is on record?
Its AC50 is 25.1 µM [rising, single point].

Which AC50 does the source give for `COc1ccc(OC)c2[nH]c(=O)c(CCNC(=O)CC(C)C)cc12` here?
The AC50 was 2.51 µM [rising, full curve, poor fit].

Which AC50 does the source give for `Cc1nc(SCC#N)c2c(C)c(C)sc2n1` here?
Its AC50 is 2.51 µM [rising, full curve].

Which AC50 does the source give for `Cc1nc2nc(-c3cccs3)cn2nc1C` here?
Its AC50 is 12.6 µM [rising, partial curve].

With `CCOC(=O)CCn1nc(-c2ccc(Cl)cc2)cc1N` as the molecule, how does the AC50 read?
Its AC50 is 0.126 µM [falling, partial curve, poor fit].

For `Cc1nc(SCCO)c2oc3ccccc3c2n1`, which AC50 is on record?
Its AC50 is 10 µM [rising, partial curve].

Which AC50 does the source give for `COc1ccc(-c2c(C#N)c(SCc3c(C)noc3C)nc3c2C(=O)CC(C)(C)C3)cc1` here?
The AC50 was 31.6 µM [falling, partial curve, poor fit].

With `N#Cc1c(NC(=O)CSc2n[nH]c(Cc3ccccc3)n2)oc(-c2ccccc2)c1-c1ccccc1` as the molecule, how does the AC50 read?
Its AC50 is 12.6 µM [falling, partial curve].

With `CC(C(=O)Nc1nccs1)N1C(=O)C2CC=CCC2C1=O` (configuration not stated) as the molecule, how does the AC50 read?
The AC50 was 5.01 µM [falling, single point].

For `CC(=O)c1ccc(NC(=O)Nc2ncn(Cc3cccc(C)c3)n2)cc1`, which AC50 is on record?
The AC50 was 6.31 µM [rising, partial curve].

Which AC50 does the source give for `Cn1c(=O)[nH]c(=O)c2c1nc(Br)n2CCOc1ccccc1` here?
Its AC50 is 5.01 µM [rising, partial curve].

With `CN1CC=C2C(C#N)=C(N)C(C#N)(C#N)C(CCc3ccccc3)C2C1` (configuration not stated) as the molecule, how does the AC50 read?
The AC50 was 10 µM [rising, single point].

Which AC50 does the source give for `Cc1cc(C)n2nc(C(=O)NCc3ccccc3)cc2n1` here?
The AC50 was 0.316 µM [rising, full curve, poor fit].

For `O=c1c(CCc2ccccc2)nc2cnc(N3CCOCC3)nc2n1C[C@H]1CCCO1`, which AC50 is on record?
Its AC50 is 10 µM [rising, partial curve].

With `COc1ccc(C[C@@H]2C(=O)N[C@H](C)C(=O)N(C)[C@@H]3Cc4ccc(cc4)Oc4cc(ccc4O)C[C@H](C(=O)N[C@@H](C)C(=O)N[C@H](C)C(=O)N2C)N(C)C3=O)cc1` as the molecule, how does the AC50 read?
The AC50 was 3.98 µM [falling, partial curve].

With `CC(C)(C)c1ccc(-c2nnc(SCCC#N)n2C2CCCC2)cc1` as the molecule, how does the AC50 read?
Its AC50 is 0.2 µM [falling, partial curve].

Which AC50 does the source give for `c1ccc(COc2ccc(Oc3nc(N4CCCCC4)nc(N4CCOCC4)n3)nn2)cc1` here?
The AC50 was 25.1 µM [rising, single point].

For `Cc1ccc(C2C3=C(CC(C)(C)CC3=O)NC3=C2C(=O)CC(C)(C)C3)o1`, which AC50 is on record?
The AC50 was 0.794 µM [rising, full curve].
